Data set [1] addresses T1, Ifit1b (mouse, JAWS II lysate) (Mus musculus (JAWS II cells)) (UniProt Q64282).
T1 sequence (looked up, limits assumed): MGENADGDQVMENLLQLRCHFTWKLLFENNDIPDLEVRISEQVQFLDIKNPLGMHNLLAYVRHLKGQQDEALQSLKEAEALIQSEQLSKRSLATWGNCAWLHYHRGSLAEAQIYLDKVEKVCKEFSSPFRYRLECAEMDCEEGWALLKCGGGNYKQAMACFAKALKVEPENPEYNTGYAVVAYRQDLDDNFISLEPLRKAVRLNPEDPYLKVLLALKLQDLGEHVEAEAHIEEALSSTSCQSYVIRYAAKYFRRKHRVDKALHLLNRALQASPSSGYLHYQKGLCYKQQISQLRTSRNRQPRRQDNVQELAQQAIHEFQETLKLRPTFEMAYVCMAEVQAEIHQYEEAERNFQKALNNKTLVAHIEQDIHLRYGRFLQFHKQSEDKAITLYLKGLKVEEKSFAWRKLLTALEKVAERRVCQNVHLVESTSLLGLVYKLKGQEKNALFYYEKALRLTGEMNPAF
Description: pull-down AP-MS. The conditions noted are these: pull-down: 20 mM Tris-HCl pH 7.4, 150 mM NaCl, 2 mM MgCl2, 2 mM DTT, 0.2% IGEPAL, 4 C, protein in an extract, label: biotin (pAp-biotin conjugate), letters put together from the description.

Chains of the proteins cited; added tags and fusions are not shown. A line that says so, or that is headed by a name, gives the form on record, which may keep a tag or linker. Residues count along the entry.
UniProt P06730, whole entry: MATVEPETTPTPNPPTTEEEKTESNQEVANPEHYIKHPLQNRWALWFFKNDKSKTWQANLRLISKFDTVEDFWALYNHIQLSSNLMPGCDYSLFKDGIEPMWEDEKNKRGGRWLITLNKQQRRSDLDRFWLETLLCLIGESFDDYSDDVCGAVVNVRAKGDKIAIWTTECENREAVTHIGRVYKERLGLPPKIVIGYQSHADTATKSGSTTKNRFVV
UniProt P63073, 28-217: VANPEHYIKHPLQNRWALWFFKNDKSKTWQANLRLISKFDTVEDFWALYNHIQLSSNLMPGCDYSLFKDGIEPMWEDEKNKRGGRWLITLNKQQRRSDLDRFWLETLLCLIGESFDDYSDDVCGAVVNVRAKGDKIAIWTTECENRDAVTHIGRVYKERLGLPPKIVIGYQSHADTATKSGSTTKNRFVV
nuclear cap-binding complex (A549 lysate) (Homo sapiens (A549 cells)), one chain, as listed by the source, chain 2 of 2: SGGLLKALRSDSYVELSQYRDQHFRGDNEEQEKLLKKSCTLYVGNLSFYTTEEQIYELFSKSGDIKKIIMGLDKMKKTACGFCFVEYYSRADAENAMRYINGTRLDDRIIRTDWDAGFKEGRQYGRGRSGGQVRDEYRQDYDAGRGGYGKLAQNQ
nuclear cap-binding complex (A549 lysate) (Homo sapiens (A549 cells)), one chain, as listed by the source, chain 1 of 2: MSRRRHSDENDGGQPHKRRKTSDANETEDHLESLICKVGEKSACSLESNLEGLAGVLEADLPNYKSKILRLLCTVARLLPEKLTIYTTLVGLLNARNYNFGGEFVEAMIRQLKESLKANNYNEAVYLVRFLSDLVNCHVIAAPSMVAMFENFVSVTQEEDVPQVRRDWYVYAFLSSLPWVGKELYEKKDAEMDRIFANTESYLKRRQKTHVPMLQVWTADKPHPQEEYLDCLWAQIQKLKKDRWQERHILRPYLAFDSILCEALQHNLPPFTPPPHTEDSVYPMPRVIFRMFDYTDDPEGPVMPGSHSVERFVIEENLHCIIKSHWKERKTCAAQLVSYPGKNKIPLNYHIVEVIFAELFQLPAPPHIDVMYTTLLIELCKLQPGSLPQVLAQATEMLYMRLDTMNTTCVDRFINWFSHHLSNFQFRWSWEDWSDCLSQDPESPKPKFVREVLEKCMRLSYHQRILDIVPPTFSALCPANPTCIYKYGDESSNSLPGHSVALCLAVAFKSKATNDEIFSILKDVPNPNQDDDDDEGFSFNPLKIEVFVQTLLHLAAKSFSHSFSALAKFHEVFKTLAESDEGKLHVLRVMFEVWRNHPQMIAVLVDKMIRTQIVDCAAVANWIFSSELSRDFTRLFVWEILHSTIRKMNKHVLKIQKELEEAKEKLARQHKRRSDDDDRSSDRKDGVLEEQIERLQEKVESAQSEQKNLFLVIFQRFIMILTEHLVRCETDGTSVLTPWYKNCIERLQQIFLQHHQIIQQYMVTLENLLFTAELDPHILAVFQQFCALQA

Data set [2] concerns nuclear cap-binding complex (A549 lysate) (Homo sapiens (A549 cells)). Description: pull-down, western blot. The conditions noted are these: A549 lysate, pull-down: 20 mM Tris-HCl pH 7.4, 150 mM NaCl, 2 mM MgCl2, 2 mM DTT, 0.2% IGEPAL, 4 C, protein in an extract, label: biotin (pAp-biotin conjugate), letters put together from the description. In general terms: In western blotting, separated proteins are transferred to a membrane and probed.

Data set [3] deals with T2, IFIT1 (human, A549 lysate) (UniProt P09914).
T2 sequence (looked up, limits assumed): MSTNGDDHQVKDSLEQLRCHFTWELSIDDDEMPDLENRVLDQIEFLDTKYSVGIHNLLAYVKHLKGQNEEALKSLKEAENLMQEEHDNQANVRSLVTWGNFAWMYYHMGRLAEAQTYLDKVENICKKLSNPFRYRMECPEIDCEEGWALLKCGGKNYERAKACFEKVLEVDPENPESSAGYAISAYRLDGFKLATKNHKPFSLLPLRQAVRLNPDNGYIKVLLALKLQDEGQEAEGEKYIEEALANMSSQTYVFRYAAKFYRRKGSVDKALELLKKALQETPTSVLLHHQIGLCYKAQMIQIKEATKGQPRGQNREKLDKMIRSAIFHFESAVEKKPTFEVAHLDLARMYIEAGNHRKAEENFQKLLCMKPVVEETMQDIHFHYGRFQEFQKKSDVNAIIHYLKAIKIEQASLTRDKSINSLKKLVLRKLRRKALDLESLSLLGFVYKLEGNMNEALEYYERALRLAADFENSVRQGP
Kind of data set: pull-down, western blot. Conditions: A549 lysate, pull-down: 20 mM Tris-HCl pH 7.4, 150 mM NaCl, 2 mM MgCl2, 2 mM DTT, 0.2% IGEPAL, 4 C, label: biotin (pAp-biotin conjugate), letters put together from the description.

Data set [4] has as its target T1, Ifit1b (mouse, JAWS II lysate) (Mus musculus (JAWS II cells)). Kind of data set: pull-down, western blot. Conditions: JAWS II lysate, pull-down: 20 mM Tris-HCl pH 7.4, 150 mM NaCl, 2 mM MgCl2, 2 mM DTT, 0.2% IGEPAL, 4 C, protein in an extract, label: biotin (pAp-biotin conjugate), letters put together from the description.
Data set [5] concerns the target eIF4E (human, A549 lysate) (Homo sapiens (A549 cells)) (UniProt P06730). Kind of data set: pull-down, western blot. Conditions: A549 lysate, pull-down: 20 mM Tris-HCl pH 7.4, 150 mM NaCl, 2 mM MgCl2, 2 mM DTT, 0.2% IGEPAL, 4 C, protein in an extract, label: biotin (pAp-biotin conjugate), letters put together from the description.
The target of data set [6] is eIF4E (murine) (Mus musculus) (UniProt P63073). Kind of data set: MST competition. Conditions: vs m7Gp5OC3(5)FAM, slightly destabilized vs A, recombinant protein, letters put together from the description.

These results are taken from publication PMC9458431.

The exact form of at least one protein or probe is not confirmed. For some assays here: Weaker means in comparison with the reference protein, sequence or condition of that experiment. For some assays here: At least one verdict was read from the data and is not stated in words by the source. For some assays here: At least one result comes from cells or an extract, where the contact may be indirect. For some assays here: A negative result means that nothing was seen under these conditions. For some assays here: Where a protein sequence is shown, tags need not be part of it. For some assays here: The direction of at least one scale is not stated here.

As to “AGGGGAAGCGGGCAUGCGGCCAGCCA [cap0(A) RNA-biotin]”, the binding signal (log2 ratio vs mock) in data set [1] (m7Gppp-A) was found to be 2.71. Further, the binding result in data set [2] (m7Gppp-A) is “binds”; in data set [3] (m7Gppp-A, protein in an extract), “binds”; in data set [4] (m7Gppp-A), “binds”; in data set [5] (m7Gppp-A), “binds”.
With “AGGGGAAGCGGGCAUGCGGCCAGCCA [cap0(m6A) RNA-biotin]”, the binding result is listed as “binds” in data set [3] (m7Gppp-m6A, protein in an extract) and “binds” in data set [4] (m7Gppp-m6A).
Turning to “AGGGGAAGCGGGCAUGCGGCCAGCCA [cap0(m6A) RNA]”, the binding result in data set [6] (m7Gppp-m6A) is on record as “binds more weakly”.
With “AGGGGAAGCGGGCAUGCGGCCAGCCA [cap1(A) RNA-biotin]”, the binding signal (log2 ratio vs mock) in data set [1] (m7Gppp-Am, counted as no binding) was -0.644. Besides, the binding result is on record as “binds” in data set [2] (m7Gppp-Am); “binds more weakly” in data set [3] (m7Gppp-Am, protein in an extract); “no binding” in data set [4] (m7Gppp-Am); “binds” in data set [5] (m7Gppp-Am).
For “AGGGGAAGCGGGCAUGCGGCCAGCCA [cap1(m6A) RNA-biotin]”, the binding result is “binds more weakly” in data set [3] (almost unrecognizable, m7Gppp-m6Am, protein in an extract) and “no binding” in data set [4] (m7Gppp-m6Am).
For “AGGGGAAGCGGGCAUGCGGCCAGCCA [cap1(m6A) RNA]”, the binding result in data set [6] (m7Gppp-m6Am) is reported as “binds more weakly”.
Regarding “AGGGGAAGCGGGCAUGCGGCCAGCCA [cap2(A) RNA-biotin]”, the binding signal (log2 ratio vs mock) in data set [1] (m7Gppp-AmpGm) is 0.799. In addition, the binding result in data set [2] (m7Gppp-AmpGm) is on record as “binds”; in data set [3] (m7Gppp-AmpGm, protein in an extract), “no binding”; in data set [5] (m7Gppp-AmpGm) it was “binds”.
As for “AGGGGAAGCGGGCAUGCGGCCAGCCA [cap2(m6A) RNA-biotin]”, the binding result in data set [3] (synergistic reduction, m7Gppp-m6AmpGm, protein in an …) is recorded as “binds more weakly”.
In the case of “AGGGGAAGCGGGCAUGCGGCCAGCCA [cap2(m6A) RNA]”, in data set [6] (m7Gppp-m6AmpGm), the binding result is “binds more weakly”.
Turning to “AGGGGAAGCGGGCAUGCGGCCAGCCA [cap2-1(A) RNA-biotin]”, the binding signal (log2 ratio vs mock) in data set [1] (m7Gppp-ApGm) was 2.89. In addition, the binding result in data set [2] (m7Gppp-ApGm) is “binds”; in data set [3] (m7Gppp-ApGm, protein in an extract), “binds more weakly”; in data set [4] (m7Gppp-ApGm) it was “binds”; in data set [5] (m7Gppp-ApGm), “binds”.
Turning to “AGGGGAAGCGGGCAUGCGGCCAGCCA [cap2-1(m6A) RNA-biotin]”, the binding result in data set [3] (similar to cap1(m6A), m7Gppp-m6ApGm, protein in an extract) is reported as “binds more weakly”; in data set [4] (m7Gppp-m6ApGm), “binds”.
